These results are taken from article PMC12442443, “Identifying interactions between TDP‐43's N‐terminal and RNA‐binding domains” (Protein Science : A Publication of the Protein Society, 2024).

Chains of the proteins cited; added tags and fusions are not shown. Residues count along the entry.
UniProt Q13148, 102-260: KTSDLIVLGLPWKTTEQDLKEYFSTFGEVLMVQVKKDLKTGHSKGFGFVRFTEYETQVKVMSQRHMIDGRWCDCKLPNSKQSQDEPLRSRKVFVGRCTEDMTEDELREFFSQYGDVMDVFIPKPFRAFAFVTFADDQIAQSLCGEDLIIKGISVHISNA

The data set addresses TDP-43 102-260 (RRM1-RRM2) (Homo sapiens) (UniProt Q13148). Briefly: MST. Particulars: fits non-binder model, authors report binding by HTRF; recombinant protein.

No signal at the amounts used counts as a negative.

In the case of UGUGUGUG [(UG)4], the binding result is recorded as “no binding”.
